Values quoted from earlier work, collected in paper PMC9721373 (Antiviral Research, 2022).
Structures can show the parent of a compound that is named as a salt.

Molecular target: purified ACE2
Details: read-out: dissociation constant (KD); cited from earlier work

CSc1ccc2c(c1)N(CCC1CCCCN1C)c1ccccc1S2 (stereo not shown) [Thioridazine hydrochloride]
Kd: 7.88 µM
